In paper PMC11530666 one finds binding data, which are given here for 3 molecules.

These are yes or no findings as the source states them, for the method shown. For some of these results: Binding seen in cells or lysates may run through a third protein. Some binding calls cover weakened binding; strength is not graded here. Sequences can lack the tags named with a protein.

Assay [1] concerns the target T1, GST-fused HECTD3 DOC domain (216-393 aa) (UniProt Q5T447).
T1 sequence: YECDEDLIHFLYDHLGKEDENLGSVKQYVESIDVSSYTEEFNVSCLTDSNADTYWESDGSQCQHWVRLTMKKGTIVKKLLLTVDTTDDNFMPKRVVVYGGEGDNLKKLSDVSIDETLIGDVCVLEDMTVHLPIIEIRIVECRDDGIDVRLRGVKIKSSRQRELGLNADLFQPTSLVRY
Kind of assay: pull-down; GST fusions and Flag-tagged partner cotransfected in HEK293T for 24 h; lysates on Glutathione Sepharose beads, 2 h at 4 C, five washes; Western blot. (Immunoblotting shows a protein as a band on a membrane.)

Assay [2] concerns the target T2, purified recombinant GST-HECTD3 (UniProt Q5T447).
T2 sequence: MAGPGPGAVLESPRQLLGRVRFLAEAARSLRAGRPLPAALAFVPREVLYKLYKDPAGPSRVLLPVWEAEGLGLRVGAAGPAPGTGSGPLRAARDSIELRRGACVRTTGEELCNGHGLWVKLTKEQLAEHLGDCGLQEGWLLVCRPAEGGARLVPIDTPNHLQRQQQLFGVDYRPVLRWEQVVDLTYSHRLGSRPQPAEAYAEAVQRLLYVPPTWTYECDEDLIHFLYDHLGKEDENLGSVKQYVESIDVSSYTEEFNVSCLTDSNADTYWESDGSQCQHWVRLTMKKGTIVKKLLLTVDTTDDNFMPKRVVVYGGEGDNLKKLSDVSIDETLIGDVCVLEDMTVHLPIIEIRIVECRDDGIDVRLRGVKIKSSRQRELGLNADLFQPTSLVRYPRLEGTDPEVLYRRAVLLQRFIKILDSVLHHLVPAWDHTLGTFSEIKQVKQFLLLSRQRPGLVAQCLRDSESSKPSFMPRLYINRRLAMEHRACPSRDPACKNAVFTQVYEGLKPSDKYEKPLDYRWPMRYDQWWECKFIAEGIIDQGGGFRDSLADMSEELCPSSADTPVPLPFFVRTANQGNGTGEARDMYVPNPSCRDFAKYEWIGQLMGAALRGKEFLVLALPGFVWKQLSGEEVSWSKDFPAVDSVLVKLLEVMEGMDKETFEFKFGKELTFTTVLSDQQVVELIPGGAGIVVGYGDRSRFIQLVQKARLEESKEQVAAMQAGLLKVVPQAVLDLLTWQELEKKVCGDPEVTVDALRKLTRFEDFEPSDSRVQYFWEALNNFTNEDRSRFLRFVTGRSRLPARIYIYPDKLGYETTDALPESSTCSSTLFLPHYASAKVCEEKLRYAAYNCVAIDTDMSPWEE
Briefly: pull-down; purified His-p62 (3 ug) mixed with GST-UbcH5b (6 ug) or GST-HECTD3 (6 ug), Glutathione Sepharose beads, 2 h at 4 C, five washes; blot with anti-p62 antibody; both purified.

The target of assay [3] is GST-p62 (UniProt Q13501). Kind of assay: pull-down; GST fusions and Flag-tagged partner cotransfected in HEK293T for 24 h; lysates on Glutathione Sepharose beads, 2 h at 4 C, five washes; Western blot.
The target in assay [4] is endogenous p62 (human (endogenous in HEK293T)) (UniProt Q13501). Kind of assay: co-IP; p62 rabbit antibody (3 ug) with Protein A/G on whole HEK293T lysates, 12 h at 4 C; IP buffer 0.5% NP-40, 50 mM Tris-HCl pH 7.4, 50 mM EDTA, 150 mM NaCl; rabbit IgG as negative control; Western blot.

As to p62-Flag (from UniProt Q13501 1-440), the binding entry in assay [1] is on record as “binds”.
Take “purified His-p62 (from UniProt Q13501 1-440)”: the binding entry in assay [2] was “binds”.

B1: exogenously expressed Flag-HECTD3 (enzyme, UniProt Q5T447 1-861)
chain: T2 sequence
For the molecule B1, the binding entry in assay [3] and in assay [4] was “binds” each time.
